For 35 compounds, AC50 results are on record in PubChem BioAssay AID1487 (National Center for Advancing Translational Sciences (NCATS), 2009).

Molecules are shown by their SMILES. The list shows a part of the results. The main result of the screen is listed elsewhere. These columns were measured beside it and carry no call. Most of these compounds were active or inconclusive in the main read-out, so they are no random draw. Words in brackets tell the shape of the fitted curve; partial curves, single points and poor fits give uncertain potencies.

The assay in a line: qHTS Assay for Modulators of Lamin A Splicing. Particulars: HeLa LMNA splicing GFP/RFP minigene ratio, 48 h. In outline: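 S3 HeLa stable clones carrying a lamin A-EGFP splicing minigene plus DsRed2 were seeded at 600 cells/well in Opti-MEM with 2% FBS, pin-dosed and incubated 48 h at 37°C. Acumen cytometry (488 nm) gave the GFP/RFP total-intensity ratio.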
For orientation: qHTS replaces the single test concentration by a dilution series.

Where [1] appears, read: measured here: RFP viability control channel.
Setting [2] is: measured here: GFP splicing reporter channel.

In the case of `CCOC(=O)c1cc(C)n(-c2ccc(OC)c(OC)c2)c1C`, the AC50 under setting [1] was 0.501 µM [rising, partial curve, poor fit].
On to `O=C(Nc1ccc(C#Cc2ccccc2)cc1)C1CC1`, for which, under setting [1], the concentration at half-maximal activity (AC50) is 11.2 µM [rising, partial curve].
In the case of `COc1ccc([C@H]2[C@H](C(=O)OC(C)(C)C)N3N=Cc4ccccc4C3C23C(=O)c2ccccc2C3=O)cc1OC` (some centres not stated), the half-maximal activity concentration (AC50) runs as follows: under setting [2], 8.91 µM [rising, partial curve, poor fit]; under setting [1], 5.01 µM [rising, partial curve, poor fit].
With `O=C(Nn1cnc2ccccc2c1=O)c1ccc([N+](=O)[O-])cc1Cl`, the AC50 under setting [2] is 7.08 µM [falling, full curve, poor fit].
Take `[NH-]c1ncnc2c1N=C[N+]2=CC=CCO`: under setting [1], the half-maximal activity concentration (AC50) is 5.62 µM [rising, single point].
For `Cc1ccc(S(=O)(=O)NC2CCCCC2)c(C)c1NS(C)(=O)=O`, the AC50 under setting [1] was 0.0891 µM [rising, full curve, poor fit].
For `COc1ccc(-c2nc3cnc(Oc4cccc(Cl)c4)nc3n(C3CC3)c2=O)cc1`, under setting [1], the AC50 is 12.6 µM [falling, single point].
Turning to `COc1ccccc1NS(=O)(=O)c1cccc(NC(=O)c2ccc3ccccc3n2)c1`, under setting [1], the AC50 is 22.4 µM [rising, partial curve, poor fit].
`CCc1ccc(-n2c(C)nc3cc(C(=O)NCCc4ccccc4)ccc32)cc1`: under setting [2], the AC50 is 10 µM [falling, partial curve, poor fit].
For `CCN1/C(=C/c2ccc3ccc(C)cc3[n+]2CC)Sc2ccccc21`, under setting [1], the concentration at half-maximal activity (AC50) was 5.01 µM [rising, single point].
On to `Cc1ccc(CCNC(=O)CCSCc2ccc(Cl)cc2)cc1`, for which the AC50 is 0.141 µM [falling, full curve, poor fit] under setting [2] and 0.0631 µM [falling, full curve, poor fit] under setting [1].
For the compound `CCc1cc(C(=O)Cc2cnn(-c3ccccc3)c2)c(O)cc1O`, the AC50 under setting [2] is 12.6 µM [rising, partial curve] and the AC50 under setting [1] is 14.1 µM [rising, partial curve].
`CCN(CC)CCNC(=O)c1cc(Br)c(N)cc1OC`: the half-maximal activity concentration (AC50) under setting [2] is 0.2 µM [falling, full curve, poor fit].
On to `O=Cc1cccc(Oc2ccc([N+](=O)[O-])cc2[N+](=O)[O-])c1`, for which the half-maximal activity concentration (AC50) under setting [1] is 14.1 µM [rising, partial curve, poor fit].
With `Cc1cc(OCC(=O)Nc2cccc(S(=O)(=O)NC3=NCCCCC3)c2)ccc1Cl`, the AC50 was 20 µM [rising, single point] under setting [2] and 35.5 µM [rising, single point] under setting [1].
In the case of `CN(c1ccccc1)S(=O)(=O)c1cccc(NC(=O)CC(C)(C)C)c1`, the AC50 was 2 µM [rising, full curve, poor fit] under setting [2] and 14.1 µM [rising, partial curve] under setting [1].
As for `O=C(O)CS/C(=C\c1ccc(F)cc1)c1nc2ccccc2s1`, the concentration at half-maximal activity (AC50) under setting [1] is 7.08 µM [rising, partial curve].
In the case of `O=C(CCc1nnc(-c2ccccc2)o1)NCc1cc(F)ccc1F`, the half-maximal activity concentration (AC50) under setting [1] is 0.631 µM [rising, partial curve, poor fit].
For `CCCSc1cc(NCCOC(=O)CCC)c([N+](=O)[O-])c2nonc12`, under setting [1], the AC50 is 22.4 µM [rising, single point].
In the case of `CCCCC(=O)NC(=S)Nc1cccc(C(=O)O)c1`, under setting [2], the concentration at half-maximal activity (AC50) was 0.00316 µM [falling, full curve, poor fit].
`COc1ccc(-c2cccc(NS(=O)(=O)c3cc(C)c(Cl)cc3C)c2)nn1`: the half-maximal activity concentration (AC50) reads like this: under setting [2], 3.16 µM [falling, partial curve, poor fit]; under setting [1], 0.0447 µM [falling, full curve, poor fit].
Turning to `Cc1cccc(CS(=O)(=O)Cc2ccc(C(=O)NCc3ccc(Cl)cc3)o2)c1`, the half-maximal activity concentration (AC50) under setting [1] is 28.2 µM [falling, partial curve].
Same read-out and setting: with `CN(c1ccc(Cl)cc1)c1cc(=O)n(C)c2ccccc12` the figure was 14.1 µM [rising, partial curve].
As to `CC1CCCC(C)N1C(=O)c1cc2ncc(CCCl)cn2n1` (configuration not stated), the concentration at half-maximal activity (AC50) is, setting by setting: under setting [2], 35.5 µM [rising, single point]; under setting [1], 22.4 µM [rising, single point].
Turning to `Cc1nn2c(-c3cccc(NC(=O)CSc4nc5ccccc5o4)c3)nnc2c2ccccc12`, the half-maximal activity concentration (AC50) under setting [1] was 35.5 µM [rising, single point].
With `O=C(CSc1nc2ccccc2o1)N1c2ccccc2Sc2ccccc21`, the AC50 under setting [1] was 22.4 µM [rising, single point].
Take `O=C1c2ccccc2C(=O)N1CCc1csc(-c2cccc(Cl)c2)n1`: under setting [1], the AC50 is 11.2 µM [rising, single point].
In the case of `COc1cccc(CSc2nc3n(n2)C(c2ccccc2C)C(C(=O)Nc2ccccc2OC)=C(C)N3)c1` (configuration not stated), the AC50 is 22.4 µM [rising, single point] under setting [2] and 31.6 µM [rising, single point] under setting [1].
For the compound `CCOc1ccc2nc(N3CCCN(C(=O)Nc4ccccc4C)CC3)c(C#N)cc2c1`, the AC50 is, setting by setting: under setting [2], 35.5 µM [rising, single point]; under setting [1], 35.5 µM [rising, single point].
With `CC(=O)Nc1ccc(OCc2nnc(-c3ccc(Cl)cc3)o2)cc1`, under setting [2], the AC50 was 7.94 µM [rising, partial curve].
As for `Cc1cc(NC(c2cccnc2)c2ccc3cccnc3c2O)no1` (configuration not stated), the AC50 runs as follows: under setting [2], 35.5 µM [rising, single point]; under setting [1], 15.8 µM [rising, partial curve].
In the case of `CCOC(=O)Cc1[nH]nc2c1C(C1C=CCCC1)C(C#N)=C(N)O2` (configuration not stated), the AC50 reads like this: under setting [2], 31.6 µM [rising, single point]; under setting [1], 35.5 µM [rising, single point].
As for `Cc1ccc(O)c(-c2cc(C(=O)Nc3c(C)n(C)n(-c4ccccc4)c3=O)[nH]n2)c1`, the AC50 under setting [2] was 0.01 µM [falling, full curve, poor fit].
For the compound `Cc1cc(C)n(C(=O)CCN2C(=O)c3ccccc3C2=O)n1`, under setting [2], the AC50 is 5.62 µM [rising, single point].
On to `CC(C)CN(CC(C)C)C(=O)Cc1coc2ccc3ccccc3c12`, for which the AC50 is 12.6 µM [rising, partial curve, poor fit] under setting [2] and 17.8 µM [rising, single point] under setting [1].

One may read the AC50 as the concentration giving half of the maximal activity seen.
